Measurements: the supplement of paper PMC10849652
This is one part of the list.

Sequences of proteins named here, by UniProt entry; tags and fusion partners are left off. A change or cut given only in a name is not applied to a line headed by its entry.
UniProt Q8NFH5: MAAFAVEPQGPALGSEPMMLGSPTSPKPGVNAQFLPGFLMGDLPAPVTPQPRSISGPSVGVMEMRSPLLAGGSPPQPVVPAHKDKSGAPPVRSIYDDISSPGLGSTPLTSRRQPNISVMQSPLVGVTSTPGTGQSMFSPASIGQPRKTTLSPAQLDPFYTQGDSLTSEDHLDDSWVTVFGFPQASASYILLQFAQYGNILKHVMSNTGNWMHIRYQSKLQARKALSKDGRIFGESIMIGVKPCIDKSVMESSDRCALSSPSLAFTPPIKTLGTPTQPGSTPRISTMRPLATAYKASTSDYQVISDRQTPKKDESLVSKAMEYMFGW
UniProt Q8NFH3: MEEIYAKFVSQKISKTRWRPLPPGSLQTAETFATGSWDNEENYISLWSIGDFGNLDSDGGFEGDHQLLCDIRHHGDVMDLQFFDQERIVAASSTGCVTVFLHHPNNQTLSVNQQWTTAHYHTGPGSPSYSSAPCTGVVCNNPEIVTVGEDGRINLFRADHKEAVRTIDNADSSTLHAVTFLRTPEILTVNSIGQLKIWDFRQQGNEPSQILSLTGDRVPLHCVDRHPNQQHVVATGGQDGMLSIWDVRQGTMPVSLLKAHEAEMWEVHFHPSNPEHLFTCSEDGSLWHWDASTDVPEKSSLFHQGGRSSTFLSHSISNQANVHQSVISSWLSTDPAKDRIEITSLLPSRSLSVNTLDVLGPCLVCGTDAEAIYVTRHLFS
UniProt Q9UKK6: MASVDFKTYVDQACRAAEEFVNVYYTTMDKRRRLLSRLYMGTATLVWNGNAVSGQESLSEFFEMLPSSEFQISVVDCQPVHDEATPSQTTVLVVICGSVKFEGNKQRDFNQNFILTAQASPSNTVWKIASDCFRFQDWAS
UniProt Q9Y530: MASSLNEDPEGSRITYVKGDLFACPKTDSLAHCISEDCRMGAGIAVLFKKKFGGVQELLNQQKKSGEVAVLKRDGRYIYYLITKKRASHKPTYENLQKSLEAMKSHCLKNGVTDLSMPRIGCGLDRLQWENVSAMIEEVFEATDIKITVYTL
UniProt P35658: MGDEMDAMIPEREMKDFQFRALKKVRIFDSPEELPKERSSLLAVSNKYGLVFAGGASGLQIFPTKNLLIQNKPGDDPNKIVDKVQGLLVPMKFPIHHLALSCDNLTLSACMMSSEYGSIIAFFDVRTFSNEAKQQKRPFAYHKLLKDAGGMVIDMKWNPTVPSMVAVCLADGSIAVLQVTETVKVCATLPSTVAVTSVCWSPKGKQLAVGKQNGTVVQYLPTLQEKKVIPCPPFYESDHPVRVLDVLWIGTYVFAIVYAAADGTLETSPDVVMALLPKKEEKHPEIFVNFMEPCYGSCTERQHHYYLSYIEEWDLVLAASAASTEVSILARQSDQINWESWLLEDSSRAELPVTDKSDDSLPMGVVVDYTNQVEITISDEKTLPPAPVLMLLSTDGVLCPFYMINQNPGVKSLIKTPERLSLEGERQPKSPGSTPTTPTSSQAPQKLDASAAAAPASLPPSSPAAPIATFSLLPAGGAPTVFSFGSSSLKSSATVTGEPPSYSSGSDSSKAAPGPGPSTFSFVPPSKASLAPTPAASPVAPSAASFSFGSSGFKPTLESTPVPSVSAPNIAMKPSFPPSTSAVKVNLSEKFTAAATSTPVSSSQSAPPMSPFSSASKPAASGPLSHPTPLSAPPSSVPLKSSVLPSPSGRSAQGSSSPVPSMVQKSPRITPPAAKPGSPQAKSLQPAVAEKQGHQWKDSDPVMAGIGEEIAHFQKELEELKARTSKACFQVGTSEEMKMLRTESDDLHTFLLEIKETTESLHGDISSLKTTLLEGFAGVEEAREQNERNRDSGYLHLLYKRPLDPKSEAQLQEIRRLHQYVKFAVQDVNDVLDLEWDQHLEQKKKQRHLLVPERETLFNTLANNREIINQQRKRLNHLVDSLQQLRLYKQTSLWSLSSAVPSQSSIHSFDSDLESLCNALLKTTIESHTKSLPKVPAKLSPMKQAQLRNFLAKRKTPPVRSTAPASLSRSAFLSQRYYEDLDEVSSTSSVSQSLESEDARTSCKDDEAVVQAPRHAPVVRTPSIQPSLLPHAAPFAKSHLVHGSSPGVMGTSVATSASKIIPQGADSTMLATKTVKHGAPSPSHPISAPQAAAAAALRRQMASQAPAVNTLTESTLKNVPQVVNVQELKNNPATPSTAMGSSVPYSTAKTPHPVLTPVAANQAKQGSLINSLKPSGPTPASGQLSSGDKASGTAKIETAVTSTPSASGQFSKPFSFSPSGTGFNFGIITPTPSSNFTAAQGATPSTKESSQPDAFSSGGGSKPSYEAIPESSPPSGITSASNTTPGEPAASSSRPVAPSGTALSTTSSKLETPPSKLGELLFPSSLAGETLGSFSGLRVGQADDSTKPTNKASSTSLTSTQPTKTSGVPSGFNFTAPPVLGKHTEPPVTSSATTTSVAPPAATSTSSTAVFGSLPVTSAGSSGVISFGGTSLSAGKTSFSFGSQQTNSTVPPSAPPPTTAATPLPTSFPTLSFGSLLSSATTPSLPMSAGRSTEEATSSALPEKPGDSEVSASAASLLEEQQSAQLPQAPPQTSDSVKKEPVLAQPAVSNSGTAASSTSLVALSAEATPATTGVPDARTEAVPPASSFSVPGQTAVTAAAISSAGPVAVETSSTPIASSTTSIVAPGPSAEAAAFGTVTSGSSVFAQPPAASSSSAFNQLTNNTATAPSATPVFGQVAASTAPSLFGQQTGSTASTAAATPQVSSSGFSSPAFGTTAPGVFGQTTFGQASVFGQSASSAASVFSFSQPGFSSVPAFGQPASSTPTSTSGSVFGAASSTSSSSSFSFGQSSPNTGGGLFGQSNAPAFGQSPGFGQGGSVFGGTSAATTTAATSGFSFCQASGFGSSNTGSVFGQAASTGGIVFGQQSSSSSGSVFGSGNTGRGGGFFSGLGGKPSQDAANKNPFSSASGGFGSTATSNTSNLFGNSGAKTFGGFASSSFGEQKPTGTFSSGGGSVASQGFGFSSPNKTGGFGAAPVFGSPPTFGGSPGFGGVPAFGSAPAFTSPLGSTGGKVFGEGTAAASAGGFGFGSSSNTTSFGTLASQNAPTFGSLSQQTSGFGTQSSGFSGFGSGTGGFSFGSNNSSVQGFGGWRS
UniProt Q9BXW6, whole entry, looked up: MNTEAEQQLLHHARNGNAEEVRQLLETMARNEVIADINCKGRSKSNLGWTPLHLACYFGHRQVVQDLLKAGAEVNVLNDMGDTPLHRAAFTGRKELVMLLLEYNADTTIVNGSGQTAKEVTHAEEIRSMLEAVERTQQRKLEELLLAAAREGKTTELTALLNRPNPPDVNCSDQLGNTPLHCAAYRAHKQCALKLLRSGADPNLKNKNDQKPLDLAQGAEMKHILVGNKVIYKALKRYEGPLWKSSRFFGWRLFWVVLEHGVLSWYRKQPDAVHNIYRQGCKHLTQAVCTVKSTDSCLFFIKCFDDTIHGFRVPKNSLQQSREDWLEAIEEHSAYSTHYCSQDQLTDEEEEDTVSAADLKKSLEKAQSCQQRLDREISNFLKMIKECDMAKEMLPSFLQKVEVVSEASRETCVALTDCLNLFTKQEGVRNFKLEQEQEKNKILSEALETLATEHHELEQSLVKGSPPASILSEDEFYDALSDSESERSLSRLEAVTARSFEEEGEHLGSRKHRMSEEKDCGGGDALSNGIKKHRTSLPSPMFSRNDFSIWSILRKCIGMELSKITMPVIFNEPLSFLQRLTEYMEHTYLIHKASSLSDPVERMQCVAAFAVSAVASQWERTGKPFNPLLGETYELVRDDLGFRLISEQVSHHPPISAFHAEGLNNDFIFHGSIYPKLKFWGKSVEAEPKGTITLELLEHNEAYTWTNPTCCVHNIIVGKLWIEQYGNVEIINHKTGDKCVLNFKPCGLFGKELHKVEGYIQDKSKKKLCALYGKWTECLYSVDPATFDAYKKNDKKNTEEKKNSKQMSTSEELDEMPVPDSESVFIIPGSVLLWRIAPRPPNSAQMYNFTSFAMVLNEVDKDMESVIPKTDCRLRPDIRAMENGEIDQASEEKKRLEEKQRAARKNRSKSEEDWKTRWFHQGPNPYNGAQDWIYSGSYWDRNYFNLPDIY
UniProt O95340: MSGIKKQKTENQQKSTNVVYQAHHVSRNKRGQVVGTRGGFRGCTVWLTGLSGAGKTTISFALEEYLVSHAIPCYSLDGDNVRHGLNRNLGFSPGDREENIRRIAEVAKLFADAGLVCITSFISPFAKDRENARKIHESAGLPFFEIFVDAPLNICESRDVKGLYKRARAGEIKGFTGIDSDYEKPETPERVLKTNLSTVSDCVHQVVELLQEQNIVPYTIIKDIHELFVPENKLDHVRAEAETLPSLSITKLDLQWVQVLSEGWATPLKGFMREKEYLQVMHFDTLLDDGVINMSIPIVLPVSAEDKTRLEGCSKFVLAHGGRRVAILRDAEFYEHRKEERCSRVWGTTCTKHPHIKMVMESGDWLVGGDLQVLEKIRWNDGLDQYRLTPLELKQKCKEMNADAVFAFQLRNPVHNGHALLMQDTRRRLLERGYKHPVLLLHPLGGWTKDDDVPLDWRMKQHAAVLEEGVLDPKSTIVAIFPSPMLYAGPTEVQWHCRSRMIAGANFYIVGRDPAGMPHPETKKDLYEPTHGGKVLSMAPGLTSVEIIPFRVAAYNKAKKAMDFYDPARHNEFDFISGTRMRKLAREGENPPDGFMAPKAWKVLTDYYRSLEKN
UniProt Q99567: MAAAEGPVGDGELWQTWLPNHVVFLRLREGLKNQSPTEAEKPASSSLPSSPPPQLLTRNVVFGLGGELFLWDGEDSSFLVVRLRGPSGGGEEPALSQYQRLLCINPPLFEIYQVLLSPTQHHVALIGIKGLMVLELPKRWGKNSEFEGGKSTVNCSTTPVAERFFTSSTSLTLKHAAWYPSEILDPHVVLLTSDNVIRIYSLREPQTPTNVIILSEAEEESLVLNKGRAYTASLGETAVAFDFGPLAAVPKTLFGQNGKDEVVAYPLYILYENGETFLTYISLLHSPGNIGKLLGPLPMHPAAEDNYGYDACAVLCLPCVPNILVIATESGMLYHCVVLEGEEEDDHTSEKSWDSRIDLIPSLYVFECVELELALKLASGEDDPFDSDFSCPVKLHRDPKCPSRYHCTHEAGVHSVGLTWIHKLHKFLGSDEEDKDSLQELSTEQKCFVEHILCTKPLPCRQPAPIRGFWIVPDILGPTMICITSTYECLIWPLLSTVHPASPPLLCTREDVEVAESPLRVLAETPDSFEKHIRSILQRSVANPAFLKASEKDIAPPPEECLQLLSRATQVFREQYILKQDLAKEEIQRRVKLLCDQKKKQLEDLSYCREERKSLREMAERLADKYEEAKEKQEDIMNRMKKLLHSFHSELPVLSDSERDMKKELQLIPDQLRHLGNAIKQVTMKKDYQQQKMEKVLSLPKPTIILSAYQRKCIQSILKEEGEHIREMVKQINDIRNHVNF
UniProt Q96D31, whole entry, looked up: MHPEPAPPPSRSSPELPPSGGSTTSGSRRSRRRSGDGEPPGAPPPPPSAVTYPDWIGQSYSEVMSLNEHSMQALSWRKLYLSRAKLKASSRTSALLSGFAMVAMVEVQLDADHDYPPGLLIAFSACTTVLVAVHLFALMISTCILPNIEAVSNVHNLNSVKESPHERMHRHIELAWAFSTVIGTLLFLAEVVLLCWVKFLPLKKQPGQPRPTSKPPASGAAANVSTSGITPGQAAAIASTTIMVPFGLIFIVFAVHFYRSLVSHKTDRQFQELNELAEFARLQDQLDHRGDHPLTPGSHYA
UniProt Q5JRK9: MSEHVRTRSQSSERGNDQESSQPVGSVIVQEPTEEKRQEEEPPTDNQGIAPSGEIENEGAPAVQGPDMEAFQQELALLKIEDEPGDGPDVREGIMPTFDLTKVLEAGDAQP
UniProt Q9BWT3: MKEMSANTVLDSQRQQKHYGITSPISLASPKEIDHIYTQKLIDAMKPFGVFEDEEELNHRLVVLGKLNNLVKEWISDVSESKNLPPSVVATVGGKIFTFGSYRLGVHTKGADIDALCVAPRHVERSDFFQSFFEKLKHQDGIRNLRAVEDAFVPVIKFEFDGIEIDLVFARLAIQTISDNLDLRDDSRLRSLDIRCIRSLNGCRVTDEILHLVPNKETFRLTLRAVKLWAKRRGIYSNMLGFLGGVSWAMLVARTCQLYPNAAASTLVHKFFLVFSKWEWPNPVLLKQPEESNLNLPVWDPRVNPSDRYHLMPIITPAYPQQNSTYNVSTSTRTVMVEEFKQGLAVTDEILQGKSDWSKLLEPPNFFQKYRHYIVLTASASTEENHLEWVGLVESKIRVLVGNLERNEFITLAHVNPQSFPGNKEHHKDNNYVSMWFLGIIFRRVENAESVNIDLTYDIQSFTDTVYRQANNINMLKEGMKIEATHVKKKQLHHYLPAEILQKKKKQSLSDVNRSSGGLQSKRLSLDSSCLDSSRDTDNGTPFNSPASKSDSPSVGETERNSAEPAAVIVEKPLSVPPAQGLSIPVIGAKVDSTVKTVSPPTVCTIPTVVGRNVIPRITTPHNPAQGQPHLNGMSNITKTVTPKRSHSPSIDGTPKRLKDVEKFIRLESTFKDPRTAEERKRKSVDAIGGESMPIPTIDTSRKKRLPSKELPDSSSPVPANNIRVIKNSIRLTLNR

These targets were tested with C1=CC=C(C=C1)[C@H](COC2=CC3=C(C=C2)NC(=O)N3)NC(=O)C4=CC=CN(C4=O)CC5=CC(=C(C=C5)F)F (assay: log2 fold change, soluble protein after heating vs DMSO (PISA); higher = thermal stabilisation; K562 lysate, 10 uM; active = over 0.2 and 3.5 SD of the protein, either way, in both replicates (recomputed)).
Summary of the method: (§1)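 Pellets of K562 cells were dounce-homogenised in PBS pH 7.4 with 1 mM MgCl2, and the crude extract was held at 1 mg/mL protein for a 30 min treatment with 10 μM compound. Aliquots were heated for 3 min over 48°C-58°C and pooled before NP-40 was added to 0.5% at 4°C. The supernatant from 21,000xg for 90 min was quantified by TMTpro 16plex LC-MS/MS with channel sums equalised. Values are reported from duplicates as log-two fold change in thermal stability relative to solvent controls.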

Q: PABPN1 (UniProt Q86U42) was tested. Which log2 fold change did it give?
A: inactive: 0.04

Q: With NUP35 (UniProt Q8NFH5) as the target, how does the log2 fold change read?
A: inactive: -0.015

Q: Which log2 fold change does the source give for NUP43 (UniProt Q8NFH3) here?
A: inactive: 0

Q: How did the log2 fold change turn out when OPHN1 (UniProt O60890) was run?
A: inactive: 0.068

Q: With NXT1 (UniProt Q9UKK6) as the target, how does the log2 fold change read?
A: inactive: 0.067

Q: How did the log2 fold change turn out when OARD1 (UniProt Q9Y530) was run?
A: inactive: -0.005

Q: For NUP214 isoform 4 (UniProt P35658), which log2 fold change is on record?
A: inactive: 0.022

Q: Which log2 fold change does the source give for OSBPL1A (UniProt Q9BXW6) here?
A: inactive: -0.089

Q: With PAPSS2 isoform 2 (UniProt O95340) as the target, how does the log2 fold change read?
A: inactive: 0.012

Q: P2RY1 (UniProt P47900) was tested. Which log2 fold change did it give?
A: inactive: -0.153

Q: P4HA1 isoform 2 (UniProt P13674) was tested. Which log2 fold change did it give?
A: inactive: 0.141

Q: For PAGE4 (UniProt O60829), which log2 fold change is on record?
A: inactive: 0.024

Q: With NUP88 (UniProt Q99567) as the target, how does the log2 fold change read?
A: inactive: -0.033

Q: For ORAI1 (UniProt Q96D31), which log2 fold change is on record?
A: inactive: -0.088

Q: Which log2 fold change does the source give for PABPC1 (UniProt H0YAR2) here?
A: inactive: 0.043

Each target was assayed with CC1=C(SC2=C1C(=N[C@H](C3=NN=C(N32)C)CC(=O)N)C4=CC=C(C=C4)Cl)C in the same assay as above.
Summary of the method: as §1

Q: Which log2 fold change does the source give for PABPN1 (UniProt Q86U42) here?
A: inactive: 0.085

Q: Which log2 fold change does the source give for NUP35 (UniProt Q8NFH5) here?
A: inactive: -0.031

Q: For NUP43 (UniProt Q8NFH3), which log2 fold change is on record?
A: inactive: 0.061

Q: Which log2 fold change does the source give for OPHN1 (UniProt O60890) here?
A: inactive: -0.035

Q: Which log2 fold change does the source give for NXT1 (UniProt Q9UKK6) here?
A: inactive: 0.366

Q: Which log2 fold change does the source give for OARD1 (UniProt Q9Y530) here?
A: inactive: -0.014

Q: Which log2 fold change does the source give for NUP214 isoform 4 (UniProt P35658) here?
A: inactive: 0.054

Q: OSBPL1A (UniProt Q9BXW6) was tested. Which log2 fold change did it give?
A: inactive: 0.007

Q: For PAPSS2 isoform 2 (UniProt O95340), which log2 fold change is on record?
A: inactive: -0.092

Q: P2RY1 (UniProt P47900) was tested. Which log2 fold change did it give?
A: inactive: 0.163

Q: How did the log2 fold change turn out when P4HA1 isoform 2 (UniProt P13674) was run?
A: inactive: 0.04

Q: With PAGE4 (UniProt O60829) as the target, how does the log2 fold change read?
A: inactive: -0.11

Q: Which log2 fold change does the source give for NUP88 (UniProt Q99567) here?
A: inactive: 0.006

Q: ORAI1 (UniProt Q96D31) was tested. Which log2 fold change did it give?
A: inactive: 0.08

Q: With PABPC1 (UniProt H0YAR2) as the target, how does the log2 fold change read?
A: inactive: -0.06

The targets below were run with CC1=C2C(=CC=C1)N=C(N(C2=O)C3=CC=CC=C3C)CN4C=NC5=C(N=CN=C54)N in the same assay as above.
Summary of the method: as §1

Q: How did the log2 fold change turn out when NUP35 (UniProt Q8NFH5) was run?
A: inactive: -0.127

Q: For NUP43 (UniProt Q8NFH3), which log2 fold change is on record?
A: inactive: -0.02

Q: PAGE2B (UniProt Q5JRK9) was tested. Which log2 fold change did it give?
A: inactive: -0.031

Q: For NXT1 (UniProt Q9UKK6), which log2 fold change is on record?
A: inactive: 0.322

Q: How did the log2 fold change turn out when OCIAD1 (UniProt D6RDK6) was run?
A: inactive: 0.05

Q: With OARD1 (UniProt Q9Y530) as the target, how does the log2 fold change read?
A: inactive: 0.035

Q: How did the log2 fold change turn out when P3H3 (UniProt Q8IVL6) was run?
A: inactive: -0.053

Q: PAPOLG (UniProt Q9BWT3) was tested. Which log2 fold change did it give?
A: inactive: 0.064

Q: With PAPSS2 isoform 2 (UniProt O95340) as the target, how does the log2 fold change read?
A: inactive: -0.01

Q: How did the log2 fold change turn out when P4HA1 isoform 2 (UniProt P13674) was run?
A: inactive: -0.09

Q: Which log2 fold change does the source give for NUP88 (UniProt Q99567) here?
A: inactive: -0.009

What follows are targets tested with Cc1sc2c(c1C)C(c1ccc(Cl)cc1)=N[C@@H](CC(=O)OC(C)(C)C)c1nnc(C)n1-2 in the same assay as above.
Summary of the method: as §1

Q: For PABPN1 (UniProt Q86U42), which log2 fold change is on record?
A: inactive: 0.083

Q: NXF2 (UniProt Q9GZY0) was tested. Which log2 fold change did it give?
A: inactive: 0.099

Q: NUP43 (UniProt Q8NFH3) was tested. Which log2 fold change did it give?
A: inactive: -0.011

Q: For PAGE2B (UniProt Q5JRK9), which log2 fold change is on record?
A: inactive: -0.072

Q: With OPHN1 (UniProt O60890) as the target, how does the log2 fold change read?
A: inactive: -0.047

Q: With OARD1 (UniProt Q9Y530) as the target, how does the log2 fold change read?
A: inactive: 0.044

Q: With OSBPL1A (UniProt Q9BXW6) as the target, how does the log2 fold change read?
A: inactive: -0.144

Q: With PACRGL (UniProt Q8N7B6) as the target, how does the log2 fold change read?
A: inactive: 0.238

Q: How did the log2 fold change turn out when P3H3 (UniProt Q8IVL6) was run?
A: inactive: -0.122

Q: Which log2 fold change does the source give for PAPOLG (UniProt Q9BWT3) here?
A: inactive: 0.074

Q: For OAF (UniProt Q86UD1), which log2 fold change is on record?
A: inactive: -0.146

Q: With PARD3B (UniProt Q8TEW8) as the target, how does the log2 fold change read?
A: inactive: 0.138

Q: With OPA3 isoform 2 (UniProt Q9H6K4) as the target, how does the log2 fold change read?
A: inactive: 0.013

Q: Which log2 fold change does the source give for P2RY1 (UniProt P47900) here?
A: inactive: -0.047

Q: Which log2 fold change does the source give for PAGE4 (UniProt O60829) here?
A: inactive: -0.143

Q: How did the log2 fold change turn out when NUP88 (UniProt Q99567) was run?
A: inactive: -0.005

Q: How did the log2 fold change turn out when OGG1 isoform 4 (UniProt O15527) was run?
A: inactive: 0.246

Q: Which log2 fold change does the source give for ORMDL3 (UniProt Q8N138) here?
A: inactive: 0.092

Each target was assayed with c1ccc([C@@H]2C[C@H]2NC2CCNCC2)cc1 in the same assay as above.
Summary of the method: as §1

Q: For PABPN1 (UniProt Q86U42), which log2 fold change is on record?
A: inactive: -0.024

Q: For NUP35 (UniProt Q8NFH5), which log2 fold change is on record?
A: inactive: 0.054

Q: With NXF2 (UniProt Q9GZY0) as the target, how does the log2 fold change read?
A: inactive: 0.021

Q: OXR1 isoform 7 (UniProt Q8N573) was tested. Which log2 fold change did it give?
A: inactive: 0.033

Q: Which log2 fold change does the source give for NUP43 (UniProt Q8NFH3) here?
A: inactive: -0.02

Q: For PAGE2B (UniProt Q5JRK9), which log2 fold change is on record?
A: inactive: 0.182

Q: With OPHN1 (UniProt O60890) as the target, how does the log2 fold change read?
A: inactive: -0.017

Q: For OXR1 isoform 2 (UniProt Q8N573), which log2 fold change is on record?
A: inactive: 0.021

Q: How did the log2 fold change turn out when NXT1 (UniProt Q9UKK6) was run?
A: inactive: -0.153

Q: With OS9 isoform 7 (UniProt Q13438) as the target, how does the log2 fold change read?
A: inactive: -0.141

Q: NXT2 isoform 3 (UniProt Q9NPJ8) was tested. Which log2 fold change did it give?
A: inactive: 0.07

Q: How did the log2 fold change turn out when OARD1 (UniProt Q9Y530) was run?
A: inactive: -0.005

Q: With ORC3 (UniProt Q9UBD5) as the target, how does the log2 fold change read?
A: inactive: -0.276

Q: For NUP214 isoform 4 (UniProt P35658), which log2 fold change is on record?
A: inactive: 0.087

Q: Which log2 fold change does the source give for OGDH isoform 2 (UniProt Q02218) here?
A: inactive: 0.015

Q: Which log2 fold change does the source give for OSBPL1A (UniProt Q9BXW6) here?
A: inactive: -0.084

Q: How did the log2 fold change turn out when PACRGL (UniProt Q8N7B6) was run?
A: inactive: -0.021

Q: PAPOLG (UniProt Q9BWT3) was tested. Which log2 fold change did it give?
A: inactive: -0.107

Q: How did the log2 fold change turn out when PAPSS2 isoform 2 (UniProt O95340) was run?
A: inactive: -0.207

Q: How did the log2 fold change turn out when PARD3B (UniProt Q8TEW8) was run?
A: inactive: -0.085

Q: P2RY1 (UniProt P47900) was tested. Which log2 fold change did it give?
A: inactive: -0.022

Q: For P4HA1 isoform 2 (UniProt P13674), which log2 fold change is on record?
A: inactive: -0.008

Q: PAGE4 (UniProt O60829) was tested. Which log2 fold change did it give?
A: inactive: 0.118

Q: With NUP88 (UniProt Q99567) as the target, how does the log2 fold change read?
A: inactive: -0.006

Q: How did the log2 fold change turn out when ORAI1 (UniProt Q96D31) was run?
A: inactive: -0.198

Q: How did the log2 fold change turn out when PACS2 isoform 2 (UniProt Q86VP3) was run?
A: inactive: -0.172

Q: How did the log2 fold change turn out when PABPC1 (UniProt H0YAR2) was run?
A: inactive: -0.148
